Experimental data as given in patent publication US12398138B2, “FGFR inhibitor compound in solid form and preparation method therefor” (CSPC ZHONGQI PHARMACEUTICAL TECHNOLOGY (SHIJIAZHUANG) CO., …, priority 2019, dated 2025).
Where two headings read alike, the source gives them in different places.

Experiment: Pharmacokinetic investigation in dogs
Type: in vivo
Details: male, dog, plasma, beagle dogs, read-out: Concentration integral AUC
From the text: The experiments aimed to test the pharmacokinetics of the test compound in beagle dogs.
Two beagle dogs were selected as one group. The compound was formulated into a designated preparation. The vehicle for intravenous injection was a mixture of DMSO: polyethylene glycol […] (PEG400): saline=10:40:50 (volume ratio) or a mixture of 10% DMSO/10% solutol/80% water. The vehicle for oral administration was a mixture of 0.5% methylcellulose (MC)+0.2% Tween. Each animal was given the preparation intragastrically at a predetermined dosage. […]
The plasma concentration of the compound was processed using a non-compartmental model by WinNonlin™ Version 6.3.0 (Pharsight, Mountain View, Calif.) pharmacokinetic software. The peak concentration (Cmax), time of maximum plasma concentration (Tmax), and time of the last quantifiable concentration, were determined directly from the curve of plasma concentration−time. […]
For the individual plasma concentration below the detection line, when it appeared before Tmax, it was calculated as 0; when it appeared after Tmax, it was directly excluded. […]
In these experiments, the pharmacokinetic parameters were calculated based on the theoretical blood collection time and theoretical administration concentration in the embodiments. […]

## C=CC(=O)N1CC[C@H](n2nc(C#Cc3cc(OC)cc(OC)c3)c3c(N)ncnc32)C1 [reference compound 1, reference compound]
1 mg/kg, intravenous administration (1 mpk)
  AUC: 2.29 µM·h
5 mg/kg, oral administration (5 mpk)
  AUC: 4.67 µM·h
